Experimental findings from US20200368370A1 are described below.

Sequences of proteins named here, by UniProt entry; tags and fusion partners are left off. Residues count along the entry.
UniProt P01942, residues 2-142: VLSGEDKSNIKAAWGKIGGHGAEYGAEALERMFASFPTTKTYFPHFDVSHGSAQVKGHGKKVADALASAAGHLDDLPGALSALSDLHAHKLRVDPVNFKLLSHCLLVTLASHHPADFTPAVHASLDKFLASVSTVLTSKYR
UniProt P68871, residues 2-147: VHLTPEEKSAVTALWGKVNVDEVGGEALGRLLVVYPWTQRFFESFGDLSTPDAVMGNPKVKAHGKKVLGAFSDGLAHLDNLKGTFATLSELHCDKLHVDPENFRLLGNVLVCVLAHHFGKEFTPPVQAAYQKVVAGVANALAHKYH

Results are given in words; binding and its absence hold for the method and conditions named. Some binding calls cover weakened binding; strength is not graded here.

For the assay, the target named is murine α globin (mouse) (UniProt P01942). Kind of assay: isoelectric focusing of RBC lysates.

For the substance “wild-type human β globin (from UniProt P68871 2-147)”, the binding entry is on record as “binds”.
